No constants are given. Whether binding was seen depends on the method and setting. Binding seen in cells or lysates may run through a third protein. These calls come from enrichment with a bait or labelling near it, and not all partners need be listed. Where a sequence is shown, tags or fusion partners need not be part of it.
Columns and labels:
[1] = target: T1, GFP-AID-RTF2 (endogenously tagged) (human) (UniProt Q9BY42); experiment: affinity purification with mass spectrometry; endogenously tagged GFP-AID-RTF2 HEK293T cells; lysate (50 mM HEPES pH 7.5, 150 mM NaCl, 2 mM MgCl2, 0.1% Tween-20, sonicated, benzonase) on GFP-rabbit antibody coupled M270 epoxy beads, 2 h at 4 °C; eluted with 8 M urea; LC-MS
T1 sequence: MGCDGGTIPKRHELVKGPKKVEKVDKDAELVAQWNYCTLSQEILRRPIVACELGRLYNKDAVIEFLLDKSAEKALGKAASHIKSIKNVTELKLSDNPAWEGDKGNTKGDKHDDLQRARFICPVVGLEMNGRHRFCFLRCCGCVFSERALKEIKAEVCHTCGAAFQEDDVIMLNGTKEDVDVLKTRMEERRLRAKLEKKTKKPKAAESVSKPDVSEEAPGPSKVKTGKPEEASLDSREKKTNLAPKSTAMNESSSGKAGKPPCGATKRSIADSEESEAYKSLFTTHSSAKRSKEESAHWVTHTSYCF

Amino acid sequences for entries named in this document (tags omitted).
UniProt O75792: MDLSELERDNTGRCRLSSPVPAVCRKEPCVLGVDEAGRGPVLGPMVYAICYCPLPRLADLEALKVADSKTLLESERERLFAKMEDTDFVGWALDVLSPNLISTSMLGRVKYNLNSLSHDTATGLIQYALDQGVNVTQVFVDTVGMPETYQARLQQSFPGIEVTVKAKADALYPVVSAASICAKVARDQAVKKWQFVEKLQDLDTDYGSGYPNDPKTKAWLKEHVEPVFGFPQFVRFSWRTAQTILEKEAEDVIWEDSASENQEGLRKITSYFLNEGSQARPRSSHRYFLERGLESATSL

[2] = target: T2, GFP-hRTF2 (overexpressed) (human) (UniProt Q9BY42); experiment: affinity purification with mass spectrometry; HEK293T overexpressing GFP-EV or GFP-hRTF2; chromatin extracts on GFP-nanobody coupled M270 epoxy beads, 2 h at 4 °C; eluted with 8 M urea; LC-MS
T2 sequence: T1 sequence

- binding [1]: binds
- binding [2]: binds
Substance: RNASEH2A, endogenous (from UniProt O75792 1-299)

From paper PMC10908796, “RTF2 controls replication repriming and ribonucleotide excision at the replisome” (Nature Communications, 2024)
